The values that follow come from the supplement of paper PMC11637464.

This test concerns primary mouse Muller glia with Ascl1 overexpression. As to the kind of experiment: progenitor-like (ProL) cell count fold change vs Ascl1-only control (log2 fold change); higher = more progenitor-like cells. On the procedure: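 Primary P11 mouse Muller glia carrying dox-inducible Ascl1 were treated with Tocriscreen Stem Cell Library compounds at 0.1, 1 or 10 uM together with doxycycline for 5 days, then profiled by sci-Plex hashing and sci-RNA-seq2. Cells were annotated by marker genes and cell-type counts per well were size-factor adjusted. Read-outs are the log2 fold change of Neuronal (NeuPre + bipolar) and ProL cell counts versus the Ascl1-only control wells of the same collection day, plus the raw number of recovered cells per well. There is one well per dose, and wells with fewer than 20 cells were discarded.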

The structures appear in SMILES notation. Structures can show the parent of a compound that is named as a salt. The list shows a part of the results. Single values are uncertain, as repeats are few or missing.

With `CC1=C(C(=O)Nc2cc3cn[nH]c3cc2F)C(c2ccc(C(F)(F)F)cc2)CC(=O)N1` (configuration not stated) (collection day: 2), the “progenitor-like (log2)” value (0.1 µM) was -0.134, the “progenitor-like (log2)” value (1 µM) worked out at 0.181 and the “progenitor-like (log2)” value (10 µM) was -0.0995.

For `Nc1[nH]ncc1-c1cc(Cl)ccc1Oc1cc(F)c(S(=O)(=O)Nc2cscn2)cc1Cl` (collection day: 2), the “progenitor-like (log2)” value (0.1 µM) was 0.263, the “progenitor-like (log2)” value (1 µM) is 0.209 and the “progenitor-like (log2)” value (10 µM) came to 0.366.

On to `COc1cc2c(cc1-c1c(C)noc1C)ncc1[nH]c(=O)n([C@H](C)c3ccccn3)c12` [I-BET 151 dihydrochloride] (collection day: 2), for which the “progenitor-like (log2)” value is, setting by setting: (0.1 µM) 0.462; (1 µM) 0.316; (10 µM) -0.585.

For the compound `COc1cccc(-c2cc(=O)c3ccccc3o2)c1N` (collection day: 1), the “progenitor-like (log2)” value by setting is: (0.1 µM) 0.585; (1 µM) 0.184; (10 µM) 0.495.

`CC(=O)Nc1ccc(C(=O)Nc2ccccc2N)cc1` (collection day: 1): the “progenitor-like (log2)” value is 0.628 (0.1 µM), 0.967 (1 µM) and -2.14 (10 µM).

In the case of `Cc1ccc(/C=N/NC(=O)c2ccccc2Oc2ccccc2)o1` (collection day: 2), the “progenitor-like (log2)” value is, setting by setting: (0.1 µM) 0.236; (1 µM) 0.181; (10 µM) -0.0995.

Turning to `Cc1cccc(-c2[nH]ncc2-c2ccc3ncccc3n2)n1` (collection day: 2), the “progenitor-like (log2)” value runs as follows: (0.1 µM) -0.0995; (1 µM) 0.316; (10 µM) -0.0656.

For the compound `O=C(O)c1ccccc1C(=O)Nc1ccc(-c2ccccc2)cc1` [Kartogenin] (collection day: 2), the “progenitor-like (log2)” value (0.1 µM) is 0.0627, the “progenitor-like (log2)” value (1 µM) was 0.123 and the “progenitor-like (log2)” value (10 µM) amounted to 0.181.

Turning to `COc1cc2nc(N3CCCN(C)CC3)nc(NC3CCN(Cc4ccccc4)CC3)c2cc1OC` (collection day: 2), the “progenitor-like (log2)” value is 0 (0.1 µM) and 0.0627 (1 µM).

With `CN(C)C(=N)NC(=N)N` [Metformin hydrochloride] (collection day: 1), the “progenitor-like (log2)” value stood at 0.241 (0.1 µM), 0.348 (1 µM) and 0.67 (10 µM).

`CC(C)(C)c1ccc(S(=O)(=O)NCc2ccc(C(=O)Nc3cccnc3)cc2)cc1` (collection day: 2): the “progenitor-like (log2)” value (0.1 µM) turned out to be 0.152 and the “progenitor-like (log2)” value (1 µM) was determined as 0.462.

For the compound `CN(CCOc1ccc(CC2SC(=O)NC2=O)cc1)c1ccccn1` (configuration not stated) [Rosiglitazone] (collection day: 2), the “progenitor-like (log2)” value was -0.134 (0.1 µM), 0.181 (1 µM) and 0.263 (10 µM).

Turning to `NC(=O)c1ccc(-c2nc(-c3ccccn3)c(-c3ccc4c(c3)OCO4)[nH]2)cc1` (collection day: 1), the “progenitor-like (log2)” value reads like this: (0.1 µM) 0.0641; (1 µM) -0.211; (10 µM) -0.459.

For the compound `CCCC(=O)Nc1ncnc2c1ncn2[C@@H]1O[C@@H]2COP(=O)(O)O[C@H]2[C@H]1OC(=O)CCC` [Dibutyryl-cAMP, sodium salt] (collection day: 1), the “progenitor-like (log2)” value came out at 0.399 (0.1 µM) and 0.863 (10 µM).

Take `C=C[C@@]1(C)CC(=O)[C@]2(O)[C@@]3(C)[C@@H](O)CCC(C)(C)[C@@H]3[C@H](O)[C@H](OC(C)=O)[C@@]2(C)O1` [Forskolin] (collection day: 1): the “progenitor-like (log2)” value was determined as 0.447 (0.1 µM), 0 (1 µM) and 0.447 (10 µM).
